Laboratory results reported in PMC4966956, “Analysis of the Bile Salt Export Pump (ABCB11) Interactome Employing Complementary Approaches” (PLoS ONE, 2016).

Protein sequences, listed by entry. Tags and fused reporters are not part of them. Lines headed by an entry give the natural chain unless they say otherwise; changes in a name come on top. Residues count along the entry.
UniProt P35241, residues 1-318: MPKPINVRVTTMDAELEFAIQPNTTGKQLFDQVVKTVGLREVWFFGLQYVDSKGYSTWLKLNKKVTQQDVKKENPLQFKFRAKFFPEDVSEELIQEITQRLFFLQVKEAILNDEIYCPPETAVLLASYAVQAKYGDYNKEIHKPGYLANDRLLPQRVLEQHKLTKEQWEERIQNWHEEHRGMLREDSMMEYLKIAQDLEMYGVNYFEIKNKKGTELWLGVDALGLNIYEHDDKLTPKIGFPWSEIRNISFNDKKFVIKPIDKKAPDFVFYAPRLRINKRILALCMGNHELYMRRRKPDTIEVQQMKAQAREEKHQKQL
UniProt O95342: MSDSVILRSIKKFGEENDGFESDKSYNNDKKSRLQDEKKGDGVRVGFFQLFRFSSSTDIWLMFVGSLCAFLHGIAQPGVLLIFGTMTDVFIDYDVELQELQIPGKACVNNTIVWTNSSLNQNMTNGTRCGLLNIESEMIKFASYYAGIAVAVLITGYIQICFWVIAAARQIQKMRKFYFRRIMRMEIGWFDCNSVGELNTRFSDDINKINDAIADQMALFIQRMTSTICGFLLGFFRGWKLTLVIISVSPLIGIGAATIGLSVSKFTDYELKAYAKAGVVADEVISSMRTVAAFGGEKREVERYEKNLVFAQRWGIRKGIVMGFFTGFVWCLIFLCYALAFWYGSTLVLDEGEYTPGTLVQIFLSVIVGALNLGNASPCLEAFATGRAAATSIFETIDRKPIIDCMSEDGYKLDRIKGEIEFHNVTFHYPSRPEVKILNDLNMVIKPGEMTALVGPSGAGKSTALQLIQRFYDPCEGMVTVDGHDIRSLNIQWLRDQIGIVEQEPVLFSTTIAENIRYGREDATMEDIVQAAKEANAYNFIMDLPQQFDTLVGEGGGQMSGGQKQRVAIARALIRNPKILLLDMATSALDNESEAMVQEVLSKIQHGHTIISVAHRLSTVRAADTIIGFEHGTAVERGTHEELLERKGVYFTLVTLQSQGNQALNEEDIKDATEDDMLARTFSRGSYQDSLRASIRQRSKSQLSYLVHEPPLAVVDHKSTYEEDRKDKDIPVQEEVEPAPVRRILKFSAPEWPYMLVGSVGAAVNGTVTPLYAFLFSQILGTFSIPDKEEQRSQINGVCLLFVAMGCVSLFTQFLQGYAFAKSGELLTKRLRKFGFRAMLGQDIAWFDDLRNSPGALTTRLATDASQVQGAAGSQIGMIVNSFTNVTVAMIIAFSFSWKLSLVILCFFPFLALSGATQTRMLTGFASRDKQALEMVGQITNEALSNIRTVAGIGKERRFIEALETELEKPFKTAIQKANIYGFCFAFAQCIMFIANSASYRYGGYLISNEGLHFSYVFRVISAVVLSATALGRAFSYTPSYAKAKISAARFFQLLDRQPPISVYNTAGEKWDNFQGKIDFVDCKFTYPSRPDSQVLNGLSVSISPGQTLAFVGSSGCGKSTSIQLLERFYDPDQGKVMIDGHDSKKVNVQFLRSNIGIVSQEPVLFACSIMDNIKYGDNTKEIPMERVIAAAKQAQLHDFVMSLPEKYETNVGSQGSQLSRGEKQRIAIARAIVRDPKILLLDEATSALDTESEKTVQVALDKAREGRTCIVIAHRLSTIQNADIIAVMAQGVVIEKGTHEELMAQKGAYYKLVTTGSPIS

Target: radixin_(1-318), Strep-tagged, purified (human) (UniProt P35241)
Test: pull-down; Strep-tagged partner immobilised on Strep-Tactin resin, detergent-solubilised purified BSEP added for 30 min at 4°C; 50 mM sodium phosphate pH 7, 150 mM NaCl, 20% glycerol, 0.022% DDM; immunoblot against BSEP and Strep-tag II; both purified

In the case of tag-less BSEP (from UniProt O95342), the binding is reported as “binds”.

Results are given in words; binding and its absence hold for the method and conditions named. A result given as binding can be weak or reduced; the word gives no strength.
